For 1 molecule, binding results are on record in publication doi:10.1101/2025.05.13.653837.

By UniProt entry, the sequences of proteins in these tests, tags left out.
UniProt Q96RR4: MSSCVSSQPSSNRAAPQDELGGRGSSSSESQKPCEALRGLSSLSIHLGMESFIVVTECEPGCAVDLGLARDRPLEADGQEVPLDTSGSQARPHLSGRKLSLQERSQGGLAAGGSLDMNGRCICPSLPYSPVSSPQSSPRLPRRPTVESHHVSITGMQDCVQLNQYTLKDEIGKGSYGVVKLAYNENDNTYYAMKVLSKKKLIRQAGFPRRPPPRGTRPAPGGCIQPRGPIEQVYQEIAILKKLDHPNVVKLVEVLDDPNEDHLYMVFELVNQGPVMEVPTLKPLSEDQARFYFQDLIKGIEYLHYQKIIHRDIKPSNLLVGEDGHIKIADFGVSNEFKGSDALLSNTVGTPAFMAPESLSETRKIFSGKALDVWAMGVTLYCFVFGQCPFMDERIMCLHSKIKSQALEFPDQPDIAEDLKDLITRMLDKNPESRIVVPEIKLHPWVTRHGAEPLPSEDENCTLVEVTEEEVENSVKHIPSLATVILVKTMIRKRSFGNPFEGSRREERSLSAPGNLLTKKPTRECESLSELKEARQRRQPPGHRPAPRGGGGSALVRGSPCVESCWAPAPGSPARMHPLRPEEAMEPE

No constants are given. Whether binding was seen depends on the method and setting. Binding seen in cells or lysates may run through a third protein. Some results given as binding are weak or reduced against the parent protein; the word gives no strength. Where a sequence is shown, tags or fusion partners need not be part of it.

This assay addresses Flag-tagged CAMKK2-LF (long isoform, exon 16 included), transiently expressed in HEK293 (human) (UniProt Q96RR4). Nature of the assay: co-IP.

B1: MYC-tagged 14-3-3 eta (YWHAH) (protein, UniProt Q04917 1-246)
chain: MGDREQLLQRARLAEQAERYDDMASAMKAVTELNEPLSNEDRNLLSVAYKNVVGARRSSWRVISSIEQKTMADGNEKKLEKVKAYREKIEKELETVCNDVLSLLDKFLIKNCNDFQYESKVFYLKMKGDYYRYLAEVASGEKKNSVVEASEAAYKEAFEISKEQMQPTHPIRLGLALNFSVFYYEIQNAPEQACLLAKQAFDDAIAELDTLNEDSYKDSTLIMQLLRDNLTLWTSDQQDEEAGEGN
Consider B1, for which the binding result is “binds”.
